The source of these data is the supplement of paper PMC4862054.

Assay in all cases: normalised response (% of control), CellTox Green; higher = less cell death (100 = DMSO, 0 = benzethonium chloride kill control)
Settings in all cases: incubation time: 72 h

One experiment concerns HDQ-P1. The method, then: (§1)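 DSRT, 72 h incubation, CellTox Green / CellTiter-Glo readout. Signal is normalised to DMSO and benzethonium chloride controls. Value is the normalised response at the lowest tested concentration.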
The next experiment deals with CAL-120. The method, then:
as §1

For another experiment, the system named is MDA-MB-436. The method, then:
as §1

The test system of another experiment is HCC1143. The method, then:
as §1

A further experiment concerns BT-474. The method, then: as §1
The subject of another experiment is MDA-MB-468. The method, then: as §1
The subject of the next experiment is MDA-MB-453. The method, then:
as §1

For the next experiment, the system named is BT-549. The method, then: as §1
A further experiment deals with MFM-223. The method, then:
as §1

The test system of another experiment is HCC1937. The method, then: as §1
The subject of the next experiment is CAL-51. The method, then: as §1
Another experiment deals with CAL-148. The method, then:
as §1

The subject of a further experiment is CAL-85-1. The method, then: as §1
The next experiment deals with MCF-10A. The method, then: as §1
A further experiment concerns Hs578T. The method, then:
as §1

In the next experiment the test system is MDA-MB-231. The method, then:
as §1

Another experiment deals with DU-4475. The method, then: as §1
The next experiment deals with HCC1599. The method, then:
as §1

Most entries show no effect beyond the scatter of the controls.

In the case of `COc1cc(O)c2c(c1)/C=C/C[C@H](O)[C@H](O)C(=O)/C=C\C[C@H](C)OC2=O` [(5Z)-7-Oxozeaenol] (1 nM), the normalised response with HDQ-P1 came to 92.2%; in the experiment with CAL-120, 98.6%; in the experiment with MDA-MB-436 it was 96.5%; in the experiment with HCC1143 it was 82.4%; in the experiment with BT-474, 96.5%; in the experiment with MDA-MB-468, 82.2%. Further, the normalised response came out at 96.9% in the experiment on MDA-MB-453; 103% in the experiment with BT-549; 104% with MFM-223; 112% in the experiment with HCC1937; 110% in the experiment on CAL-51; 106% in the experiment with CAL-148. The normalised response in the experiment with CAL-85-1 was 90.6%; with MCF-10A it was 98.6%; in the experiment on Hs578T, 104%; in the experiment with MDA-MB-231 it was 121%; with DU-4475 it was 109%; with HCC1599, 111%.

Consider `CCCCCOC(=O)Nc1nc(=O)n([C@@H]2O[C@H](C)[C@@H](O)[C@H]2O)cc1F` [Capecitabine] (1 nM), for which the normalised response came out at 74.6% with HDQ-P1; 99.2% with CAL-120; 95.2% in the experiment on MDA-MB-436; 89.2% with HCC1143; 101% in the experiment on BT-474; 107% with MDA-MB-453. Further, the normalised response was found to be 73.8% in the experiment with BT-549; 93.5% with MFM-223; 101% in the experiment on HCC1937; 111% in the experiment on CAL-51; 102% in the experiment on CAL-148; 103% in the experiment on CAL-85-1. For the same molecule, the normalised response in the experiment with MCF-10A is 86.7%; in the experiment on Hs578T it was 104%; with MDA-MB-231, 113%; in the experiment with DU-4475, 103%; in the experiment on HCC1599, 93.9%.

Consider `Cc1ccc(-c2cc(C(F)(F)F)nn2-c2ccc(S(N)(=O)=O)cc2)cc1` [Celecoxib] (1 nM), for which the normalised response in the experiment with HDQ-P1 came to 101%; in the experiment on CAL-120, 106%; in the experiment on MDA-MB-436, 84.1%; in the experiment with HCC1143, 107%; in the experiment on BT-474, 96.7%; in the experiment with MDA-MB-468, 86%. The normalised response with MDA-MB-453 was 99.3%; in the experiment with BT-549, 97.9%; in the experiment on MFM-223, 99.2%; in the experiment with HCC1937 it was 102%; in the experiment with CAL-51, 93.1%; in the experiment on CAL-148, 70.4%. For the same molecule, the normalised response in the experiment with CAL-85-1 was 97.3%; with MCF-10A, 95%; with Hs578T, 113%; in the experiment with MDA-MB-231 it was 112%; with DU-4475 it was 103%; in the experiment on HCC1599 it was 90.8%.

Take `C[C@@H]1C[C@H]2[C@@H]3CCC4=CC(=O)C=C[C@]4(C)[C@@]3(F)[C@@H](O)C[C@]2(C)[C@@]1(O)C(=O)CO` [Dexamethasone] (1 nM): the normalised response in the experiment on HDQ-P1 worked out at 65.7%; with CAL-120, 102%; in the experiment on MDA-MB-436, 68.3%; with HCC1143 it was 113%; in the experiment on BT-474 it was 99.7%; with MDA-MB-468 it was 63.4%. For the same molecule, the normalised response in the experiment on MDA-MB-453 amounted to 64.5%; in the experiment with BT-549, 97.4%; in the experiment with MFM-223, 66.2%; in the experiment on HCC1937, 58.8%; in the experiment with CAL-51, 73.3%; with CAL-148, 79.4%. The normalised response with CAL-85-1 was found to be 104%; in the experiment on MCF-10A it was 72.9%; in the experiment on MDA-MB-231, 92.3%; with DU-4475 it was 96.3%; in the experiment on HCC1599 it was 93.1%.

In the case of `COC1=C2C[C@@H](C)C[C@H](OC)[C@H](O)[C@@H](C)/C=C(\C)[C@H](OC(N)=O)[C@@H](OC)/C=C\C=C(/C)C(=O)NC(=CC1=O)C2=O` [Geldanamycin] (1 nM), the normalised response was 99% with CAL-120; 58.8% in the experiment with MDA-MB-436; 116% with HCC1143; 99.7% in the experiment with BT-474; 103% with MDA-MB-453; 69.7% in the experiment on BT-549. Moreover, the normalised response with MFM-223 was 99.9%; in the experiment with HCC1937, 109%; in the experiment with CAL-51 it was 109%; with CAL-85-1, 96.2%; with MCF-10A, 107%; in the experiment with Hs578T, 76.4%. In addition, the normalised response with MDA-MB-231 came to 107%; in the experiment with DU-4475, 102%; with HCC1599 it was 99.1%.

For `O=C(O)CNC(=O)c1c(O)c2ccccc2n(Cc2ccccc2)c1=O` [IOX-2] (5 nM), the normalised response in the experiment with CAL-120 was found to be 102%; in the experiment on HCC1143 it was 127%; in the experiment with BT-474, 100%; with MDA-MB-468, 114%; with MDA-MB-453 it was 97.6%; in the experiment on BT-549 it was 89.4%. For the same molecule, the normalised response in the experiment with MFM-223 turned out to be 107%; with HCC1937, 114%; in the experiment with CAL-51 it was 95.1%; in the experiment on CAL-85-1, 110%; in the experiment on MCF-10A, 74.9%; in the experiment on Hs578T, 78.2%. Further, the values for the normalised response in the experiment with MDA-MB-231, in the experiment with DU-4475 and in the experiment with HCC1599 were 117%, 103% and 104%, respectively.

As to `CCOc1cc2ncc(C#N)c(Nc3ccc(OCc4ccccn4)c(Cl)c3)c2cc1NC(=O)/C=C/CN(C)C` [Neratinib] (0.1 nM), the normalised response in the experiment on HDQ-P1 was 99%; with CAL-120 it was 108%; in the experiment with MDA-MB-436 it was 92.8%; in the experiment with HCC1143, 85.3%; with BT-474, 64.6%; in the experiment on MDA-MB-468 it was 86.2%. The normalised response was determined as 106% with MDA-MB-453; 101% in the experiment on BT-549; 94.2% with MFM-223; 105% in the experiment on HCC1937; 108% in the experiment on CAL-51; 104% in the experiment with CAL-85-1. Also, the normalised response in the experiment on MCF-10A was 108%; with Hs578T, 110%; in the experiment with MDA-MB-231, 123%; with DU-4475 it was 115%; with HCC1599, 114%.

For `CC[C@@]1(O)C(=O)OCc2c1cc1n(c2=O)Cc2cc3c(CN(C)C)c(O)ccc3nc2-1` [Topotecan] (1 nM), the normalised response in the experiment on CAL-120 was determined as 104%; in the experiment on MDA-MB-436, 92.8%; in the experiment on HCC1143, 123%; in the experiment on BT-474, 101%; in the experiment with MDA-MB-468, 84.5%; with MDA-MB-453, 102%. Also, the normalised response was determined as 101% in the experiment on BT-549; 101% in the experiment with MFM-223; 58.7% with HCC1937; 66.3% in the experiment with CAL-51; 96% in the experiment with CAL-85-1; 89.8% with MCF-10A. Besides, the normalised response in the experiment with Hs578T is 101%; in the experiment on MDA-MB-231, 111%; with DU-4475, 98.2%; in the experiment on HCC1599, 103%.

Consider `COc1cc2/c(=N/c3ccc(Br)cc3F)nc[nH]c2cc1OCC1CCN(C)CC1` [Vandetanib] (0.1 nM), for which the normalised response in the experiment on HDQ-P1 came to 98.8%; in the experiment with CAL-120 it was 97.8%; in the experiment with MDA-MB-436, 94.2%; in the experiment with BT-474 it was 97%; with MDA-MB-468, 105%; in the experiment on MDA-MB-453 it was 97.5%. Also, the normalised response with BT-549 was 104%; in the experiment with MFM-223, 83.3%; in the experiment with HCC1937, 97.8%; with CAL-51, 108%; in the experiment on CAL-148, 57.6%; with CAL-85-1 it was 107%. In addition, the normalised response in the experiment on MCF-10A turned out to be 73.4%; in the experiment on Hs578T it was 85.2%; with DU-4475, 89.9%.
